{"source": "paper PMC8126888", "about": "(RSC Medicinal Chemistry, 2020)"}
{"system": "Leishmania infantum MHOM/MA(BE)/67/ITMAP263 intracellular amastigotes", "details": "selectivity index vs PMM"}
{"smiles": "O=S(=O)(c1cc(F)ccc1F)N(Cc1ccccc1)C(CO)CO", "note": "[DNDI0003369448]", "SI (vs PMM)": 1}
{"smiles": "O=S(=O)(NC(CO)Cc1ccccc1)c1ccccc1Br", "note": "(stereo not drawn) [DNDI0003369449]", "SI (vs PMM)": 1}
{"smiles": "O=S(=O)(c1ccccc1Br)N(Cc1ccccc1)C(CO)Cc1ccccc1", "note": "(stereo not drawn) [DNDI0003369450]", "SI (vs PMM)": 1}
{"smiles": "COCC1COc2ccc(F)cc2S(=O)(=O)N1Cc1ccccc1", "note": "(stereo not drawn) [DNDI0003369451]", "SI (vs PMM)": 1}
{"smiles": "O=S1(=O)c2ccccc2OCC(Cc2ccccc2)N1Cc1ccccc1", "note": "(stereo not drawn) [DNDI0003370081]", "SI (vs PMM)": 1}
{"smiles": "COc1ccc(C#N)cc1S(=O)(=O)N(Cc1ccc(F)cc1)Cc1ccccn1", "note": "[DNDI0003370083]", "SI (vs PMM)": 20}
{"smiles": "COc1ncccc1S(=O)(=O)N(Cc1ccc(F)cc1)Cc1ccccn1", "note": "[DNDI0003370084]", "SI (vs PMM)": 9}
{"smiles": "COc1ccc(OC)c(S(=O)(=O)N(Cc2ccc(F)cc2)c2ccc(F)cn2)c1", "note": "[DNDI0003370085]", "SI (vs PMM)": 2}
{"smiles": "O=C1c2ccccc2S(=O)(=O)N(Cc2ccccc2)C1Cc1ccccc1", "note": "(stereo not drawn) [DNDI0003370098]", "SI (vs PMM)": 5}
{"smiles": "COc1ccc(CN2CCCC2)cc1S(=O)(=O)N(Cc1ccc(F)cc1)Cc1ccc(F)cc1", "note": "[DNDI0003370114]", "SI (vs PMM)": 3}
{"smiles": "COc1ccc(OC)c(S(=O)(=O)N(Cc2ncccn2)Cc2ncccn2)c1", "note": "[DNDI0003370115]", "SI (vs PMM)": 1}
{"smiles": "COc1ccc(Cl)cc1S(=O)(=O)N(Cc1ccccc1)C(Cc1ccccc1)C(N)=O", "note": "(stereo not drawn) [DNDI0003370116]", "SI (vs PMM)": 7}
{"smiles": "COc1ccc(OC)c(S(=O)(=O)N(Cc2ccc(F)cc2)Cc2ncccn2)c1", "note": "[DNDI0003370419]", "SI (vs PMM)": 5}
{"smiles": "COc1ccc(OC)c(S(=O)(=O)N(Cc2ccc(F)cc2)Cc2oc(C)nc2C)c1", "note": "[DNDI0003370420]", "SI (vs PMM)": 27}
{"smiles": "COc1ccc(C#N)cc1S(=O)(=O)N(Cc1ccc(F)cc1)Cc1oc(C)nc1C", "note": "[DNDI0003370421]", "SI (vs PMM)": 8}
{"smiles": "COc1ccc(OC)c(S(=O)(=O)N2CCC(c3ccccc3)CC2)c1", "note": "[DNDI0003370422]", "SI (vs PMM)": 1}
{"smiles": "COc1ccc(Cl)cc1S(=O)(=O)N(CC(=O)c1ccc(F)cc1)Cc1ccccc1", "note": "[DNDI0003371155]", "SI (vs PMM)": 1}
{"smiles": "C=C(c1ccc(F)cc1)N(Cc1ccccc1)S(=O)(=O)c1cc(Cl)ccc1O", "note": "[DNDI0003371156]", "SI (vs PMM)": 1}
{"smiles": "O=C(CN(Cc1ccccc1)S(=O)(=O)c1cc(F)ccc1F)c1ccc(F)cc1", "note": "[DNDI0003371157]", "SI (vs PMM)": 1}
{"smiles": "O=S(=O)(c1cc(F)ccc1F)N(Cc1ccc(F)cc1)Cc1ccc(F)cc1", "note": "[DNDI0003371158]", "SI (vs PMM)": 1}
{"smiles": "O=S(=O)(c1cc(F)ccc1F)N(Cc1ccccc1)CC(O)c1ccc(F)cc1", "note": "(stereo not drawn) [DNDI0003371159]", "SI (vs PMM)": 2}
{"smiles": "O=S1(=O)c2cc(F)ccc2OC(c2ccc(F)cc2)CN1Cc1ccccc1", "note": "(stereo not drawn) [DNDI0003371160]", "SI (vs PMM)": 3}
{"smiles": "CN(C)CCOc1ccc(F)cc1S(=O)(=O)N(Cc1ccc(F)cc1)Cc1ccc(F)cc1", "note": "[DNDI0003371161]", "SI (vs PMM)": 4}
{"smiles": "CNc1ncccc1S(=O)(=O)N(Cc1ccc(F)cc1)Cc1ccc(F)cc1", "note": "[DNDI0003371162]", "SI (vs PMM)": 18}
{"smiles": "Nc1ncccc1S(=O)(=O)N(Cc1ccc(F)cc1)Cc1ccc(F)cc1", "note": "[DNDI0003371163]", "SI (vs PMM)": 1}
{"smiles": "COc1ccc(S(C)(=O)=O)cc1S(=O)(=O)N(Cc1ccc(F)cc1)Cc1ccc(F)cc1", "note": "[DNDI0003371164]", "SI (vs PMM)": 50}
{"smiles": "O=c1[nH]cccc1S(=O)(=O)N(Cc1ccc(F)cc1)Cc1ccc(F)cc1", "note": "[DNDI0003371165]", "SI (vs PMM)": 1}
{"smiles": "[2H]C([2H])([2H])Oc1ncccc1S(=O)(=O)N(Cc1ccc(F)cc1)Cc1ccc(F)cc1", "note": "[DNDI0003371166]", "SI (vs PMM)": 2}
{"smiles": "O=S(=O)(c1cccnc1OC(F)F)N(Cc1ccc(F)cc1)Cc1ccc(F)cc1", "note": "[DNDI0003371167]", "SI (vs PMM)": 7}
{"smiles": "Cn1cccc(S(=O)(=O)N(Cc2ccc(F)cc2)Cc2ccc(F)cc2)c1=O", "note": "[DNDI0003371168]", "SI (vs PMM)": 3}
{"smiles": "COc1ncccc1S(=O)(=O)N(Cc1ccc(F)cc1)Cc1ccc(F)cc1", "note": "[DNDI0003371169]", "SI (vs PMM)": 5}
{"smiles": "COc1ccc(OC)c(S(=O)(=O)N(Cc2ccc(F)cc2)c2ccc(F)cc2)c1", "note": "[DNDI0003371170]", "SI (vs PMM)": 6}
{"smiles": "COc1ccc(C#N)cc1S(=O)(=O)N(Cc1ccc(F)cc1)Cc1ccc(C#N)cc1", "note": "[DNDI0003371171]", "SI (vs PMM)": 2}
